From the supplement of paper PMC9177965
Only a part is listed here, and it is no random draw.

System: HT29 sg-Ctrl (RNF43 wildtype)
Test: cell viability activity relative to DMSO (negative = inhibition); higher = more viable cells (less growth inhibition)
Conditions: 5 µM; 96 h
Procedure: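 Broad Repurposing Library primary screen at a single dose of 5 uM. HT29 sg-Ctrl and HT29 RNF43 G659fs CRISPR-edited isogenic cells were seeded at 2500 cells/well in 384-well plates in duplicate and treated for 96 h. Viability was read by CellTiter-Glo and reported as % activity relative to DMSO, with MG132 as the positive control (negative = growth inhibition).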

Structure (SMILES)	cell viability activity [%]
COc1cc(N2CCN(C(C)=O)CC2)ccc1Nc1ncc(Cl)c(Nc2ccc(N3CCN(C(C)=O)CC3)cc2OC)n1	-21.5
Cc1nc2c(-c3cnc(N)nc3)nc(N3CCOCC3)nc2n1C(C)C	-61.7
